In publication PMC7819943, “Rice protein-binding microarrays: a tool to detect cis-acting elements near promoter regions in rice” one finds binding signal data, which are given here for 54 sequences.

Sequences of proteins named here, by UniProt entry; tags and fusion partners are left off.
UniProt Q0JBA9, entry or part of it: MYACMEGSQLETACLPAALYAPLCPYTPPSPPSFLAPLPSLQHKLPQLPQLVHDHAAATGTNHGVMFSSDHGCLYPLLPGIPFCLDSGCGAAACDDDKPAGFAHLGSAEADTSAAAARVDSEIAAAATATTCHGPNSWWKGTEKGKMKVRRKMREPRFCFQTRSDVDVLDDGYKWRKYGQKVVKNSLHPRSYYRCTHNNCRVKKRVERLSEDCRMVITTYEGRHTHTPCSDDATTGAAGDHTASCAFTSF

The other results are listed elsewhere or left out.

In the assay the target is OsWRKY34 (Oryza sativa, UniProt Q0JBA9 1-250). The assay can be described thus: protein-binding microarray (RPBM); PBS, 2% BSA, 51.3 ng/ul salmon testes DNA, 50 uM zinc acetate, 200 nM TF, 25 C, 1 h; high values mean tight binding. The settings on record: protein: recombinant; tags: N-terminal polyhistidine and DsRed monomer fusion (pET32a); label: CyDye5-dUTP incorporated in the synthesized complementary strand; 3' TTTTT single-stranded linker to array surface; dsDNA, one strand shown. In a few lines: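 In PBS with 2% BSA, salmon testes DNA and 50 µM zinc acetate, 200 nM protein was incubated on a custom Agilent array at 25 °C for 1 h and then washed off. The array had been made double-stranded by primer extension with Cy5-dUTP and blocked with 2% BSA. The proteins were transcription factors fused N-terminally to polyhistidine and DsRed, expressed in E. coli BL21-CodonPlus and purified on Ni–NTA. The binding signal is per-feature fluorescence intensity (arbitrary units) from an Axon 4000B scanner.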
“CGCCTTGCCTTTTTACCACCTCTTCACATGCACGCACGGTCGGAGTCACCTAGTGCAG”: the binding signal was 8070 fluorescence intensity (a.u.). In the case of “ATGCTTTCTTCTCTTTAGCTATCACCCATCCATCTATCTACGGAGTCACCTAGTGCAG” it was 9430 fluorescence intensity (a.u.); in that of “GAGATCTTTGGGTGGTATCTCGTGCAGTAGCTGGCCTCCACGGAGTCACCTAGTGCAG”, 9120 fluorescence intensity (a.u.).

In the case of “AGACCTCGAACCATCCATCCATCTATCCACCCAACCACTCCGGAGTCACCTAGTGCAG”, the binding signal is 8390 fluorescence intensity (a.u.). Take “AAGGTGGGGTTGGAATTCCCATATCCGATTTTTGATTGTTCGGAGTCACCTAGTGCAG”: the binding signal is 12700 fluorescence intensity (a.u.). As for “ATATTTATGTGCCAAATATTGTCAATTGTTCCTCTTGTTACGGAGTCACCTAGTGCAG”, the binding signal was 9080 fluorescence intensity (a.u.). Regarding “CTTATATGTATCATTTGTTTTGTTGTTTTTTATTATTATACGGAGTCACCTAGTGCAG”, the binding signal is 10200 fluorescence intensity (a.u.). Turning to “GCATCTTGACATCTTATTTATCCAACTACGAATCATAATCCGGAGTCACCTAGTGCAG”, the binding signal is 8330 fluorescence intensity (a.u.). As for “TGTTATGTATGTTTCATCTTGTATTATCCCATGTATCAGTCGGAGTCACCTAGTGCAG”, the binding signal was 9820 fluorescence intensity (a.u.). In the case of “AAAATTTCCCTTTTTTTTATTTTTTCTGTGTCGCAATCTCCGGAGTCACCTAGTGCAG” it was 11200 fluorescence intensity (a.u.); in that of “CCACACTTTTCTACTCTCATGGCCCACATGTCATACACTCCGGAGTCACCTAGTGCAG”, 14300 fluorescence intensity (a.u.); in that of “TAGGCCCAAGATGTTTTTGATTTTGGTCAAAGTCAAAGTACGGAGTCACCTAGTGCAG”, 8330 fluorescence intensity (a.u.). Turning to “AGTGATGATAGCCCTAACATTTTAAATCGTGCTCTTTCATCGGAGTCACCTAGTGCAG”, the binding signal is 9570 fluorescence intensity (a.u.). Consider “TAAAGTTGTAGTTTGTACCTTCCATCACATATATGCATATCGGAGTCACCTAGTGCAG”, for which the binding signal was 8380 fluorescence intensity (a.u.). In the case of “GTTTCTGCGTTTTTTATTCTTCCCGGCTATACTATAGCTTCGGAGTCACCTAGTGCAG” it was 9700 fluorescence intensity (a.u.); in that of “CTATCCCAGCCGTCCGTTCCCACCTGACAACCGACCGAATCGGAGTCACCTAGTGCAG”, 9790 fluorescence intensity (a.u.). Regarding “TTTGTAACTAAACTCGGCCTATTTTTCAATATTTCTTATCCGGAGTCACCTAGTGCAG”, the binding signal was 9420 fluorescence intensity (a.u.). Regarding “TCCCCAAACCGAATACGTTTTCTCACTGTTGTCTCATCCACGGAGTCACCTAGTGCAG”, the binding signal was 8670 fluorescence intensity (a.u.). In the case of “CTTGGTCTGGGGCTCGGGGATGTGGCGGCGGGCCGGCGGCCGGAGTCACCTAGTGCAG”, the binding signal is 10800 fluorescence intensity (a.u.).

Take “AACCCCAAAAAATCCAGCACCTTCTCGCACCGCCGCCGCCCGGAGTCACCTAGTGCAG”: the binding signal is 9200 fluorescence intensity (a.u.). With “GTATTTTTCTCTCTTATCGTGAGCCCGTGTATAAGGATTACGGAGTCACCTAGTGCAG”, the binding signal was 8770 fluorescence intensity (a.u.). In the case of “ATACTCCCTTCGTTTCGAAATGTTTGACGCCGTTGACTTTCGGAGTCACCTAGTGCAG” it was 14300 fluorescence intensity (a.u.); in that of “CTGCTCGCAACTTTTGCAATCTGTCTATGTTTTTTATGTTCGGAGTCACCTAGTGCAG”, 12000 fluorescence intensity (a.u.). Turning to “AATCTATTTACCTTGCTTTCCTATGTTTTCTCGAGTGAACCGGAGTCACCTAGTGCAG”, the binding signal is 9570 fluorescence intensity (a.u.). As to “TATGCTAAATTTGACATGTCTGCTGCCTATAAATCACCTGCGGAGTCACCTAGTGCAG”, the binding signal is 8200 fluorescence intensity (a.u.). In the case of “ATCCACGTGCTTCGCCACCCAATCGTCTCACACTTGCATCCGGAGTCACCTAGTGCAG”, the binding signal was 10200 fluorescence intensity (a.u.).

With “ACACACTTACTTATGGTTTGGGAGATATTTGATACATATGCGGAGTCACCTAGTGCAG”, the binding signal was 8630 fluorescence intensity (a.u.). On to “AGTGTCGGTGTTGACTGAGGAGGGAGAAGCTGGGAGCGGCCGGAGTCACCTAGTGCAG”, for which the binding signal is 8160 fluorescence intensity (a.u.).

“TGGGAATTTCTAGCGTCCACAGCGAACGTGGTTATGTATTCGGAGTCACCTAGTGCAG”: the binding signal was 10900 fluorescence intensity (a.u.).

On to “ACCGACTTCTCCTTCCACGCTAGCTAGCTCAAACCACCACCGGAGTCACCTAGTGCAG”, for which the binding signal was 8280 fluorescence intensity (a.u.).

On to “TCTTGCGACGATCGTGTGGGGTGGGTTCGTGTGCTCTCTCCGGAGTCACCTAGTGCAG”, for which the binding signal was 19500 fluorescence intensity (a.u.).

Consider “TCATTTTGTATTTTGTTGTCTCTGTCTTGCTGTTCCCTCGCGGAGTCACCTAGTGCAG”, for which the binding signal is 8810 fluorescence intensity (a.u.). For “GCTTTGGTACGTCATCTGTGTATAAGTCGATTTTTAAGTTCGGAGTCACCTAGTGCAG”, the binding signal was 9710 fluorescence intensity (a.u.).

Turning to “CTTCGCCGCCGGCCACTTGATCCGCCTCCTTTGCCGGACGCGGAGTCACCTAGTGCAG”, the binding signal is 8720 fluorescence intensity (a.u.).

On to “GATATCCAGTTTTGTGGTTTAGGGTCACGGATTAGATTTCCGGAGTCACCTAGTGCAG”, for which the binding signal was 10100 fluorescence intensity (a.u.). In the case of “GTACTTCTCATTCTTAATTTTCTTCCTTCTTGAGGGACATCGGAGTCACCTAGTGCAG” it was 10500 fluorescence intensity (a.u.); in that of “GCGGGTTATTTGTAAAAGTCAATGATGGGCTATTTTGCAACGGAGTCACCTAGTGCAG”, 12100 fluorescence intensity (a.u.); in that of “GAGGAGAGAGTAGTAACCGTTAGTTTTGTGAATTTTATGACGGAGTCACCTAGTGCAG”, 10400 fluorescence intensity (a.u.). Take “CCATCGCCATTGACACGGACACCTTACCTGTCACAAAGAACGGAGTCACCTAGTGCAG”: the binding signal is 8160 fluorescence intensity (a.u.). As for “TGCTTGTCCTTATATATAGTGTTTGCTAATTAACGCGGGCCGGAGTCACCTAGTGCAG”, the binding signal is 8120 fluorescence intensity (a.u.). In the case of “CGAGATAGGCGGGAGCTCGGAATGCGTGTGGGGTGGGCGCCGGAGTCACCTAGTGCAG” it was 8150 fluorescence intensity (a.u.). In the case of “CTCCTTCTGCTGTACACCTCGCGCAACTACTCCCTCCGTCCGGAGTCACCTAGTGCAG”, the binding signal is 8520 fluorescence intensity (a.u.). In the case of “TGTACCTCATAGTTGATTCTGTGTTGCATTGGCTTTTACTCGGAGTCACCTAGTGCAG”, the binding signal was 10000 fluorescence intensity (a.u.). “GAGACACTGCCTCACTATTATTATTGTTTGTCACTGTTCGCGGAGTCACCTAGTGCAG”: the binding signal is 9530 fluorescence intensity (a.u.).

For the sequence “ATAGATTACTTACTCGTGGGCCGTATCCTAATCCAGCATCCGGAGTCACCTAGTGCAG”, the binding signal is 10200 fluorescence intensity (a.u.). In the case of “TGCCCTGCCTGCTTTCTTCCTGGATCGTCTCCATGCTCTGCGGAGTCACCTAGTGCAG”, the binding signal is 8680 fluorescence intensity (a.u.). For “CACCACCAGCTCGCCGTCTCGTCTCCCTCCTCCGCTTCGCCGGAGTCACCTAGTGCAG”, the binding signal was 9770 fluorescence intensity (a.u.).

With “GAATATGTAAATCTTATGGGTCGTTGTATTTGTTAGATATCGGAGTCACCTAGTGCAG”, the binding signal was 8330 fluorescence intensity (a.u.). The same measure for “GTTTGACACCGTGGACTTTTTTAAATATGTTTGACCATTCCGGAGTCACCTAGTGCAG”: 11800 fluorescence intensity (a.u.); for “GTTCACTCGAATGCTCGGACTTTTTACATTACATTAATCACGGAGTCACCTAGTGCAG”: 9210 fluorescence intensity (a.u.). As for “CTGTGTCTAATTTTAATCATCCGTCTTATTTTTTTAAAAACGGAGTCACCTAGTGCAG”, the binding signal was 9700 fluorescence intensity (a.u.). With “CTCAATTCCATGGCACAAGTCTTCCTCTCACAGTGGGGCCCGGAGTCACCTAGTGCAG”, the binding signal is 8570 fluorescence intensity (a.u.). As to “TGTTGCTGTTGATTAGCTCTCACCTAATTTGTTGTGTATGCGGAGTCACCTAGTGCAG”, the binding signal was 8610 fluorescence intensity (a.u.). Take “GTTGCACAAGAAAAATATGGATGGGGTTATTTTCAAAATTCGGAGTCACCTAGTGCAG”: the binding signal was 8430 fluorescence intensity (a.u.).
